The source of these data is the supplement of paper PMC4604168 (melanoma cell lines).

The list shows a part of the results. Single values are uncertain, as repeats are few or missing.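 Cells were imaged in 1,536-well plates, and nuclei stained with an antibody against cleaved PARP were counted against all DNA-stained nuclei to give the apoptosis fraction. Screening doses were chosen to leave most cells alive, and resting and induced cleaved-PARP levels differ strongly between cell lines.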

In the experiment the test system is SkMel5. In words: cleaved PARP positive nuclei fraction relative to DMSO control; melanoma cells; higher = more apoptosis. The note with it: library dose: low library concentration; 72 h.
As to `O=c1[nH]nc(Sc2ncc([N+](=O)[O-])s2)n1-c1ccc2c(c1)OCCO2` + COc1cc(Nc2ncc(F)c(Nc3ccc4c(n3)NC(=O)C(C)(C)O4)n2)cc(OC)c1OC [Tamatinib] (first compound 0.2 µM, partner dose 0.4 µM), the “cleaved PARP positive nuclei fraction” value is 258%.
Turning to `O=C(/C=C/c1cccnc1)NCCCCC1CCN(C(=O)c2ccccc2)CC1` + Cc1cc(N2CCOCC2)cc2[nH]c(-c3c(NC[C@@H](O)c4cccc(Cl)c4)cc[nH]c3=O)nc12 [BMS536924] (first compound 0.01 µM, partner dose 0.2 µM), the “cleaved PARP positive nuclei fraction” value amounted to 38.1%.
With `Cc1cc(Nc2cc(N3CCN(C)CC3)nc(Sc3ccc(NC(=O)C4CC4)cc3)n2)n[nH]1` [Tozasertib] + CC1(C)NC(=O)N(c2ccc([N+](=O)[O-])c(C(F)(F)F)c2)C1=O [nilutamide] (first compound 0.006 µM, partner dose 1 µM) the figure was 71.1%.
As to `O=C(/C=C/c1cccnc1)NCCCCC1CCN(C(=O)c2ccccc2)CC1` + O=S(=O)(c1ccccc1)N(CC(F)(F)F)c1ccc(C(O)(C(F)(F)F)C(F)(F)F)cc1 [T0901317] (first compound 0.01 µM, partner dose 1.4 µM), the “cleaved PARP positive nuclei fraction” value came to 80.6%.
As to `CC[C@]1(O)C[C@H]2CN(CCc3c([nH]c4ccccc34)[C@@](C(=O)OC)(c3cc4c(cc3OC)N(C=O)[C@H]3[C@@](O)(C(=O)OC)[C@H](OC(C)=O)[C@]5(CC)C=CCN6CC[C@]43[C@@H]65)C2)C1` [vincristine] + Cc1cc(N2CCOCC2)cc2[nH]c(-c3c(NC[C@@H](O)c4cccc(Cl)c4)cc[nH]c3=O)nc12 [BMS536924] (first compound 0.0001 µM, partner dose 0.2 µM), the “cleaved PARP positive nuclei fraction” value is 188%.
As for `O=c1[nH]nc(Sc2ncc([N+](=O)[O-])s2)n1-c1ccc2c(c1)OCCO2` + O=c1cc(-c2cccc3c2Sc2ccccc2S3)oc(N2CCOCC2)c1 [KU55933] (first compound 0.2 µM, partner dose 1 µM), the “cleaved PARP positive nuclei fraction” value was 76.2%.
Regarding `COc1cc([C@@H]2c3cc4c(cc3[C@@H](O[C@@H]3O[C@@H]5CO[C@@H](C)O[C@H]5[C@H](O)[C@H]3O)[C@H]3COC(=O)[C@H]23)OCO4)cc(OC)c1O` [etoposide] + O=C1NC(=O)/C(=C/c2ccc(-c3ccc(F)cc3O)o2)S1 [AS252424] (first compound 0.02 µM, partner dose 1 µM), the “cleaved PARP positive nuclei fraction” value amounted to 75.3%.
Take `Cc1cn(-c2cc(NC(=O)c3ccc(C)c(Nc4nccc(-c5cccnc5)n4)c3)cc(C(F)(F)F)c2)cn1` [nilotinib] + CCCCCCCCCCCC1=C(O)C(=O)C=C(O)C1=O [Embelin] (first compound 0.2 µM, partner dose 1.2 µM): the “cleaved PARP positive nuclei fraction” value stood at 153%.
On to `O=c1[nH]nc(Sc2ncc([N+](=O)[O-])s2)n1-c1ccc2c(c1)OCCO2` + CCCCCCCCCCCC1=C(O)C(=O)C=C(O)C1=O [Embelin] (first compound 0.2 µM, partner dose 1.2 µM), for which the “cleaved PARP positive nuclei fraction” value came out at 87.8%.
In the case of `O=c1[nH]nc(Sc2ncc([N+](=O)[O-])s2)n1-c1ccc2c(c1)OCCO2` + O=C(Nc1cccc(Cl)c1)Nc1ncc(CCNc2ncnc3ccsc23)s1 [SNS314] (first compound 0.2 µM, partner dose 0.0008 µM), the “cleaved PARP positive nuclei fraction” value was 149%.
For `CCCCCCCCCCCCCCCCCCOP(=O)([O-])OC1CC[N+](C)(C)CC1` [Perifosine] + NC(=O)Nc1cc(-c2cccc(F)c2)sc1C(=O)N[C@H]1CCCNC1 [AZD7762] (first compound 0.4 µM, partner dose 0.02 µM), the “cleaved PARP positive nuclei fraction” value stood at 231%.
On to `COc1cc([C@@H]2c3cc4c(cc3[C@@H](O[C@@H]3O[C@@H]5CO[C@@H](C)O[C@H]5[C@H](O)[C@H]3O)[C@H]3COC(=O)[C@H]23)OCO4)cc(OC)c1O` [etoposide] + COc1cc(N2CCC(N3CCN(C)CC3)CC2)ccc1Nc1ncc(Cl)c(Nc2ccccc2S(=O)(=O)C(C)C)n1 [NVP-TAE684] (first compound 0.02 µM, partner dose 0.08 µM), for which the “cleaved PARP positive nuclei fraction” value was determined as 81.8%.
Consider `Cc1cc(Nc2cc(N3CCN(C)CC3)nc(Sc3ccc(NC(=O)C4CC4)cc3)n2)n[nH]1` [Tozasertib] + COc1cc(N2CCC(N3CCN(C)CC3)CC2)ccc1Nc1ncc(Cl)c(Nc2ccccc2S(=O)(=O)C(C)C)n1 [NVP-TAE684] (first compound 0.006 µM, partner dose 0.08 µM), for which the “cleaved PARP positive nuclei fraction” value came out at 76.4%.
As for `CCCCCCCCCCCCCCCCCCOP(=O)([O-])OC1CC[N+](C)(C)CC1` [Perifosine] + O=S(=O)(c1ccccc1)N(CC(F)(F)F)c1ccc(C(O)(C(F)(F)F)C(F)(F)F)cc1 [T0901317] (first compound 0.4 µM, partner dose 1.4 µM), the “cleaved PARP positive nuclei fraction” value was found to be 84%.
With `CC[C@]1(O)C[C@H]2CN(CCc3c([nH]c4ccccc34)[C@@](C(=O)OC)(c3cc4c(cc3OC)N(C=O)[C@H]3[C@@](O)(C(=O)OC)[C@H](OC(C)=O)[C@]5(CC)C=CCN6CC[C@]43[C@@H]65)C2)C1` [vincristine] + Cn1cncc1[C@@](N)(c1ccc(Cl)cc1)c1ccc2c(c1)c(-c1cccc(Cl)c1)cc(=O)n2C [tipifarnib] (first compound 0.0001 µM, partner dose 0.01 µM), the “cleaved PARP positive nuclei fraction” value turned out to be 241%.
As to `Cc1cn(-c2cc(NC(=O)c3ccc(C)c(Nc4nccc(-c5cccnc5)n4)c3)cc(C(F)(F)F)c2)cn1` [nilotinib] + CN(NC(=O)CC(=O)NN(C)C(=S)c1ccccc1)C(=S)c1ccccc1 [STA4783] (first compound 0.2 µM, partner dose 0.006 µM), the “cleaved PARP positive nuclei fraction” value worked out at 31.2%.
Take `O=C(/C=C/c1cccnc1)NCCCCC1CCN(C(=O)c2ccccc2)CC1` + O=C(Nc1ccccc1)c1cc([N+](=O)[O-])ccc1Cl [GW9662] (first compound 0.01 µM, partner dose 2 µM): the “cleaved PARP positive nuclei fraction” value worked out at 82.5%.
With `CC[C@]1(O)C[C@H]2CN(CCc3c([nH]c4ccccc34)[C@@](C(=O)OC)(c3cc4c(cc3OC)N(C=O)[C@H]3[C@@](O)(C(=O)OC)[C@H](OC(C)=O)[C@]5(CC)C=CCN6CC[C@]43[C@@H]65)C2)C1` [vincristine] + O=c1cc(-c2cccc3c2Sc2ccccc2S3)oc(N2CCOCC2)c1 [KU55933] (first compound 0.0001 µM, partner dose 1 µM), the “cleaved PARP positive nuclei fraction” value came out at 80.2%.
With `N#CC[C@H](C1CCCC1)n1cc(-c2ncnc3[nH]ccc23)cn1` [ruxolitinib] + NCC(=O)Nc1ccc(-n2nc(C(F)(F)F)cc2-c2ccc3c(ccc4ccccc43)c2)cc1 [OSU03012] (first compound 1 µM, partner dose 1 µM) the figure was 111%; with `O=c1[nH]nc(Sc2ncc([N+](=O)[O-])s2)n1-c1ccc2c(c1)OCCO2` + CC(C)CCN1c2nc(Nc3cc(F)c(O)c(F)c3)ncc2N(C)C(=O)C1C [BID1870] (first compound 0.2 µM, partner dose 0.2 µM), 116%.
With `Cc1cn(-c2cc(NC(=O)c3ccc(C)c(Nc4nccc(-c5cccnc5)n4)c3)cc(C(F)(F)F)c2)cn1` [nilotinib] + O=C(Nc1cccc(Cl)c1)Nc1ncc(CCNc2ncnc3ccsc23)s1 [SNS314] (first compound 0.2 µM, partner dose 0.0008 µM), the “cleaved PARP positive nuclei fraction” value was determined as 62.8%.
On to `Cc1ccc(Nc2nccc(N(C)c3ccc4c(C)n(C)nc4c3)n2)cc1S(N)(=O)=O` [Pazopanib] + O=S(=O)(c1ccccc1)N(CC(F)(F)F)c1ccc(C(O)(C(F)(F)F)C(F)(F)F)cc1 [T0901317] (first compound 0.4 µM, partner dose 1.4 µM), for which the “cleaved PARP positive nuclei fraction” value stood at 223%.
With `CCCCCCCCCCCCCCCCCCOP(=O)([O-])OC1CC[N+](C)(C)CC1` [Perifosine] + CC(C)(C)c1cnc(CSc2cnc(NC(=O)C3CCNCC3)s2)o1 [SNS-032] (first compound 0.4 µM, partner dose 0.01 µM), the “cleaved PARP positive nuclei fraction” value came out at 55.6%.
